Source: paper PMC7819943, “Rice protein-binding microarrays: a tool to detect cis-acting elements near promoter regions in rice”
The other results are listed elsewhere or left out.

These sequences were tested against T1, OsSMF1 (Oryza sativa, UniProt Q6ZLB0 1-436) (assay: protein-binding microarray (RPBM); PBS, 2% BSA, 51.3 ng/ul salmon testes DNA, 50 uM zinc acetate, 200 nM TF, 25 C, 1 h; high values mean tight binding). Conditions: protein: recombinant; tags: N-terminal polyhistidine and DsRed monomer fusion (pET32a); chain copies: 2; label: CyDye5-dUTP incorporated in the synthesized complementary strand; 3' TTTTT single-stranded linker to array surface; dsDNA, one strand shown.
T1 sequence: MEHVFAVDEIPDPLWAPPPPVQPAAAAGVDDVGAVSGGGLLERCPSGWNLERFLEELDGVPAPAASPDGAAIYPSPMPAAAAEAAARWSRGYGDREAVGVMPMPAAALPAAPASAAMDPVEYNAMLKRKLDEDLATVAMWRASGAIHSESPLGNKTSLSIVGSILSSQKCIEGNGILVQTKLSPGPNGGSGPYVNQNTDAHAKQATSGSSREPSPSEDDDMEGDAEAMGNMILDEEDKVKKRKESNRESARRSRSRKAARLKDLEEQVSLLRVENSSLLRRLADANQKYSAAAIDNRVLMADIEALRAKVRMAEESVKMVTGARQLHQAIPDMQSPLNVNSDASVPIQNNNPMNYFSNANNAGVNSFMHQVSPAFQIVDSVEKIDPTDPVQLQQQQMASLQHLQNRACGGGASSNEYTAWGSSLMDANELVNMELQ
How it was run: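 In PBS with 2% BSA, salmon testes DNA and 50 µM zinc acetate, 200 nM protein was incubated on a custom Agilent array at 25 °C for 1 h and then washed off. The array had been made double-stranded by primer extension with Cy5-dUTP and blocked with 2% BSA. The proteins were transcription factors fused N-terminally to polyhistidine and DsRed, expressed in E. coli BL21-CodonPlus and purified on Ni–NTA. The binding signal is per-feature fluorescence intensity (arbitrary units) from an Axon 4000B scanner.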

Question: “GTTCTGGAGTCCATCCTCTCGGTCTTTAGCTGGCGTTACCCGGAGTCACCTAGTGCAG” was tested. Which binding signal did it give?
Answer: 20400 fluorescence intensity (a.u.)

Question: How did the binding signal turn out when “GATAACCACATCATCTAAGAACGGAATGCCTTGTGCAAATCGGAGTCACCTAGTGCAG” was run?
Answer: 4260 fluorescence intensity (a.u.)

Question: With “GCGCCGCCGGCACGGCGCCTCCTACGTGTTCGACGGAATGCGGAGTCACCTAGTGCAG” as the sequence, how does the binding signal read?
Answer: 3310 fluorescence intensity (a.u.)

Question: With “AAGTAGATGCAGGCGCCACCACGACTTTGATCGAGTTCTACGGAGTCACCTAGTGCAG” as the sequence, how does the binding signal read?
Answer: 4090 fluorescence intensity (a.u.)

Question: With “TGACAACGGGGAGGGGAGGATGGGGCGGCGACGACAGGGGCGGAGTCACCTAGTGCAG” as the sequence, how does the binding signal read?
Answer: 3580 fluorescence intensity (a.u.)

Question: Which binding signal does the source give for “GGACGCTTACGCCGTGCCCGCTCTCGTGTCACTGCCTCATCGGAGTCACCTAGTGCAG” here?
Answer: 6040 fluorescence intensity (a.u.)

Question: For “CTCAGTATATATGTTTTGAATTCATTATGACATCTTTACACGGAGTCACCTAGTGCAG”, which binding signal is on record?
Answer: 3360 fluorescence intensity (a.u.)

Question: “CTTGCCTCCGCCCATAAATACCACCCGCATTGGCGTTCAGCGGAGTCACCTAGTGCAG” was tested. Which binding signal did it give?
Answer: 50900 fluorescence intensity (a.u.)

Question: “AACTTGCGTTGACCACCCACGGGAACCATTCGTCAGATCCCGGAGTCACCTAGTGCAG” was tested. Which binding signal did it give?
Answer: 3880 fluorescence intensity (a.u.)

Question: How did the binding signal turn out when “CTCGGCACGGTGGGCCGGCCCGGTACGGCCCAATCAAATACGGAGTCACCTAGTGCAG” was run?
Answer: 10900 fluorescence intensity (a.u.)

Question: For “CCTGTCACCTGTGTGCACTGTGATTCCCGTGATCATGTCCCGGAGTCACCTAGTGCAG”, which binding signal is on record?
Answer: 24700 fluorescence intensity (a.u.)

Question: With “CACACATATATATGCCACATCTTCTCTCTCTCTCTCTCCTCGGAGTCACCTAGTGCAG” as the sequence, how does the binding signal read?
Answer: 3660 fluorescence intensity (a.u.)

Question: How did the binding signal turn out when “CCTCTCCAGTACGCGTCGCCCCGCCACGTCAGCGACTGGCCGGAGTCACCTAGTGCAG” was run?
Answer: 41600 fluorescence intensity (a.u.)

Question: For “GATTACCCTGTTGCATTGTTATACTAATTATACGGTCACACGGAGTCACCTAGTGCAG”, which binding signal is on record?
Answer: 3200 fluorescence intensity (a.u.)

Question: How did the binding signal turn out when “CGCAACATCACCCTCGCCTTCTCTCTTTCTTCCGGCTTCCCGGAGTCACCTAGTGCAG” was run?
Answer: 3740 fluorescence intensity (a.u.)

Question: “TAGAGTTTGCAATTGATATATGATGTGACATACTTATTTTCGGAGTCACCTAGTGCAG” was tested. Which binding signal did it give?
Answer: 3350 fluorescence intensity (a.u.)

Question: With “TCCACCCCAGCCGTCGACGCCGCCGTCACCCACCCGCAACCGGAGTCACCTAGTGCAG” as the sequence, how does the binding signal read?
Answer: 3410 fluorescence intensity (a.u.)

Question: Which binding signal does the source give for “CGCGCTTGACCCGTCGCGCGCCACGCCACGCCACGCCAGCCGGAGTCACCTAGTGCAG” here?
Answer: 11200 fluorescence intensity (a.u.)

Question: “AGACCCAAAATTCGTCATCACACACACAGACAGAAACAGACGGAGTCACCTAGTGCAG” was tested. Which binding signal did it give?
Answer: 3280 fluorescence intensity (a.u.)

Question: How did the binding signal turn out when “AACAGACAACGACTATGACAACGTCAACCTCAAGCGGCCACGGAGTCACCTAGTGCAG” was run?
Answer: 3250 fluorescence intensity (a.u.)

Question: “GCCTCCTAACCACGTCGGTTTCATTGCCCTGTCGCTGACCCGGAGTCACCTAGTGCAG” was tested. Which binding signal did it give?
Answer: 4880 fluorescence intensity (a.u.)

Question: How did the binding signal turn out when “TTAACCCCGTCACGTCACCTCTCTCTCTCTCTACCGTCTCCGGAGTCACCTAGTGCAG” was run?
Answer: 9720 fluorescence intensity (a.u.)

Question: Which binding signal does the source give for “CTCATGTGAATGATTTGTCTGCATTGCTAGGTTGTGTCAGCGGAGTCACCTAGTGCAG” here?
Answer: 3430 fluorescence intensity (a.u.)

Question: Which binding signal does the source give for “CCAACTTCTCGCCACCCCGTCACGACGAAGACGTTTGCTCCGGAGTCACCTAGTGCAG” here?
Answer: 3660 fluorescence intensity (a.u.)

Question: With “ATTTGCTTACGGTTATCAACACCACTGCAGGCATCCATTGCGGAGTCACCTAGTGCAG” as the sequence, how does the binding signal read?
Answer: 3680 fluorescence intensity (a.u.)

Question: For “GAAGAGGATCGGTTGCATGGGTTGGATCAGGGCCGGAGTTCGGAGTCACCTAGTGCAG”, which binding signal is on record?
Answer: 3270 fluorescence intensity (a.u.)

Question: “CAACCGCGTCACGAGGAATTCCTCCACTCCGTTCAGTGATCGGAGTCACCTAGTGCAG” was tested. Which binding signal did it give?
Answer: 4650 fluorescence intensity (a.u.)

Question: How did the binding signal turn out when “TGGCTGATTGTAGATTAAATTGGGTTGACACCTTTGCTATCGGAGTCACCTAGTGCAG” was run?
Answer: 3720 fluorescence intensity (a.u.)

Question: How did the binding signal turn out when “GCCTTGATTATCACCTCCTGTACAAGTGTTAGATACTTCTCGGAGTCACCTAGTGCAG” was run?
Answer: 24200 fluorescence intensity (a.u.)

Question: “CAATGTCCAAACGCCTTTGTCTAAGAGAACTGGGCCAGAACGGAGTCACCTAGTGCAG” was tested. Which binding signal did it give?
Answer: 3610 fluorescence intensity (a.u.)

Question: With “GACCTCCGGGTGACACAGAAGGTTAGGATAGCTCAAGACGCGGAGTCACCTAGTGCAG” as the sequence, how does the binding signal read?
Answer: 3280 fluorescence intensity (a.u.)

Question: Which binding signal does the source give for “GCTTCAAGACGAGAGGTGGTGAGTCACGCGTAGCAACCGGCGGAGTCACCTAGTGCAG” here?
Answer: 7630 fluorescence intensity (a.u.)

Question: With “TTAGTCGAAAAGTCAATGGCGTCATACATTAAAATACGGACGGAGTCACCTAGTGCAG” as the sequence, how does the binding signal read?
Answer: 4650 fluorescence intensity (a.u.)

Question: Which binding signal does the source give for “TGTAGATGTCACGTCAGCGAAACCGTCCTCTGGAGGGTTGCGGAGTCACCTAGTGCAG” here?
Answer: 5850 fluorescence intensity (a.u.)

Question: “ATTGTATAAGTTAAATTTTAACTTACATGGTTGTGGAATGCGGAGTCACCTAGTGCAG” was tested. Which binding signal did it give?
Answer: 3590 fluorescence intensity (a.u.)

Question: How did the binding signal turn out when “AATATGCTATCAATGTTATGGGCAAGGTTTATGTGCATTTCGGAGTCACCTAGTGCAG” was run?
Answer: 3690 fluorescence intensity (a.u.)

Question: How did the binding signal turn out when “ACATATATGCGTAAACAATTCATTGGTGGCCCAAGACATACGGAGTCACCTAGTGCAG” was run?
Answer: 3520 fluorescence intensity (a.u.)

Question: For “AAGGCCCACGACCACAAGCTTAGCAAGCCCTCTCTCGGTCCGGAGTCACCTAGTGCAG”, which binding signal is on record?
Answer: 34800 fluorescence intensity (a.u.)

Question: Which binding signal does the source give for “AATCTTTGACCCGCTGTCAGTTCATCATCCGTCTACTCTACGGAGTCACCTAGTGCAG” here?
Answer: 25600 fluorescence intensity (a.u.)

Question: Which binding signal does the source give for “ACATTTCTGATTTAGCTACATGTCATAGAGAGATTCAGTTCGGAGTCACCTAGTGCAG” here?
Answer: 3980 fluorescence intensity (a.u.)

Question: With “GGACATACCTTTGTCCAGATTTACTGTATTAAAATGTGTCCGGAGTCACCTAGTGCAG” as the sequence, how does the binding signal read?
Answer: 10100 fluorescence intensity (a.u.)

Question: Which binding signal does the source give for “CGCTCCACAGGCTCGCGTGCCGCGGGATCACTCGATTCGACGGAGTCACCTAGTGCAG” here?
Answer: 37500 fluorescence intensity (a.u.)
